Results are given in words; binding and its absence hold for the method and conditions named. In cells and extracts the contact can be indirect. Some entries that bind do so weakly or less than the wild type.
Target: Glycogen synthase kinase-3α (human (endogenous in A549 and H226)) (UniProt P49840)
Test: co-IP; primary antibodies on Protein L magnetic beads, whole cell lysate (NP-40 lysis buffer) incubated with the beads at 4 °C overnight, then western blot; A549 and H226 cells; under hypoxia (1% O2, 6 h), and under normoxia with MG132

Amino acid sequences for entries named in this document (tags omitted).
UniProt P49840: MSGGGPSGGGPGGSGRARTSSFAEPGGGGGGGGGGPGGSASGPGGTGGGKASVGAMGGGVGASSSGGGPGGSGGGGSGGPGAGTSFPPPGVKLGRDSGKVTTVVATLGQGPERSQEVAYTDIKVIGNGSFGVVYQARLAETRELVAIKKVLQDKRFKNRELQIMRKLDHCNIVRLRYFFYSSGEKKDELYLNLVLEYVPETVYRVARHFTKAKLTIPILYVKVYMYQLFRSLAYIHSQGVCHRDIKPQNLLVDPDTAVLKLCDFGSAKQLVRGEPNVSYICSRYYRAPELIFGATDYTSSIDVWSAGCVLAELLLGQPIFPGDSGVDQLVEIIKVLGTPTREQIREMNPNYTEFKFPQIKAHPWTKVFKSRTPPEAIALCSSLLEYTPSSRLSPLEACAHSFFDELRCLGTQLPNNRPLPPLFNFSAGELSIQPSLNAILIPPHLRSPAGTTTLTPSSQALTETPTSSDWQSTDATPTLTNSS
UniProt Q16665: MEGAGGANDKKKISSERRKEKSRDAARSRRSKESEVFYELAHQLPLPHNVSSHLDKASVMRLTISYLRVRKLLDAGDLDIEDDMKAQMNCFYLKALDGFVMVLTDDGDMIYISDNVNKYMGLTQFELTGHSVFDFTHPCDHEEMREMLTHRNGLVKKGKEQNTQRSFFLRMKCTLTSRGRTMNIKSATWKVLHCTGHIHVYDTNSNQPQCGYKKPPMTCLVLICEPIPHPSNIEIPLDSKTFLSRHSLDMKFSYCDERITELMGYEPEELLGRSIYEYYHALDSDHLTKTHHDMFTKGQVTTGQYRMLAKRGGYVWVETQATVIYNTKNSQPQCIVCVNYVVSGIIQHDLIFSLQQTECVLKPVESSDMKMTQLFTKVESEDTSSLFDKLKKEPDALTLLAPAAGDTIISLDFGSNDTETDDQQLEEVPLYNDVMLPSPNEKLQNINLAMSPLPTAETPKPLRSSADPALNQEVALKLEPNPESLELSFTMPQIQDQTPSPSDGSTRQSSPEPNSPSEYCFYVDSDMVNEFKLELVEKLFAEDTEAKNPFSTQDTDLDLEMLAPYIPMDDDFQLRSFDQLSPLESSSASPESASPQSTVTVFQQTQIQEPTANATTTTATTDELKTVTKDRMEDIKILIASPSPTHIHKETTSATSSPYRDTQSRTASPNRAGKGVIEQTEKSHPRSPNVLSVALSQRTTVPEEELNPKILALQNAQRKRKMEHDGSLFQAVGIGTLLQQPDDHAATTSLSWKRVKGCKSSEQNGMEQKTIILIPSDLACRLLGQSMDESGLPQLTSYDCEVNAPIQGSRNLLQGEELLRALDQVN

**Q.** How did the binding turn out when “Hypoxia-inducible factor 1α (from UniProt Q16665 1-826)” was run?
**A.** Its binding is “binds”.

Reference: article PMC8922767
